# Source: article PMC3313957
# Amino acid sequences for entries named in this document (tags omitted). Residues count along the entry.
# UniProt P22288, residues 12-241: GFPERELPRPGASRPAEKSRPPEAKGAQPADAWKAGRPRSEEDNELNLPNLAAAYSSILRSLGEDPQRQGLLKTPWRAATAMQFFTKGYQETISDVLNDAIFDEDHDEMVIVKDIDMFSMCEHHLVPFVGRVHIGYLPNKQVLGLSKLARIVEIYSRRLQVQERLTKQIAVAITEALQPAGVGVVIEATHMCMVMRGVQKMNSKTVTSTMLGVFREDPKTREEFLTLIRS
# UniProt Q4G061: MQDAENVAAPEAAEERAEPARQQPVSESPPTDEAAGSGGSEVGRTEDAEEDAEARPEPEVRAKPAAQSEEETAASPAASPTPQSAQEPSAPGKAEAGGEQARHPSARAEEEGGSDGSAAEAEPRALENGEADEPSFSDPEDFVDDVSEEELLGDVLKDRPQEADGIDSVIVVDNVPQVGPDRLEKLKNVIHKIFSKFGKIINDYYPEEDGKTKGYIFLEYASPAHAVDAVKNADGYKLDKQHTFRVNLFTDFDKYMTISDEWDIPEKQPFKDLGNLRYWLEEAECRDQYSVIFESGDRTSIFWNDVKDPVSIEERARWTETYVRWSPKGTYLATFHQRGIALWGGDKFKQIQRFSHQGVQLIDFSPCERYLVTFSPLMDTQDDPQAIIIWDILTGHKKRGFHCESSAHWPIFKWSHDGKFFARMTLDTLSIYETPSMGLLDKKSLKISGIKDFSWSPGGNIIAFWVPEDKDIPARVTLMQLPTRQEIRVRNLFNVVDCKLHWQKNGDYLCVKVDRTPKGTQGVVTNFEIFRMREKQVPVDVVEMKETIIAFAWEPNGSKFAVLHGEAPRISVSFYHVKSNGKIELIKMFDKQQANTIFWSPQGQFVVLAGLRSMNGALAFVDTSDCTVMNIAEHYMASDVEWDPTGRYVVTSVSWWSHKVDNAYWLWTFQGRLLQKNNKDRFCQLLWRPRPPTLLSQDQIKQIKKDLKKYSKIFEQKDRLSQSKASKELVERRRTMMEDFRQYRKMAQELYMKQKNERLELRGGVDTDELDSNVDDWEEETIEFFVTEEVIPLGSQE
# UniProt Q5RK09: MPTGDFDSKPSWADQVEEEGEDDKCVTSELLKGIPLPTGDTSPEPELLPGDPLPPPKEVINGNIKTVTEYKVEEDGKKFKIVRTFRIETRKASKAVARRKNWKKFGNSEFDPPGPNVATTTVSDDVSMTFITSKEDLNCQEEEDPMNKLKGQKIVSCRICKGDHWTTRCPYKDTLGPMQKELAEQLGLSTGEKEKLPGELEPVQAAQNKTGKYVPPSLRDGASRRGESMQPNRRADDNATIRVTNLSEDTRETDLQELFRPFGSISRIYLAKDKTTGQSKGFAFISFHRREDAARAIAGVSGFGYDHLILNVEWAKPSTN
# UniProt B0BNA7: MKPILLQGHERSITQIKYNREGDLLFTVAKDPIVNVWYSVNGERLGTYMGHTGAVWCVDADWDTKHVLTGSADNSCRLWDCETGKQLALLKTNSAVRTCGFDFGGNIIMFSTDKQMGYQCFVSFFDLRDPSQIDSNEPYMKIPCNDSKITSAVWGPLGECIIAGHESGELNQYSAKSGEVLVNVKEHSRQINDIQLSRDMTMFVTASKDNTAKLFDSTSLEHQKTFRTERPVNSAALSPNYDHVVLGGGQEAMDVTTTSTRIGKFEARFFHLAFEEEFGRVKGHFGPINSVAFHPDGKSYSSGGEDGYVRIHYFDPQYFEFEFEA
# UniProt P47819: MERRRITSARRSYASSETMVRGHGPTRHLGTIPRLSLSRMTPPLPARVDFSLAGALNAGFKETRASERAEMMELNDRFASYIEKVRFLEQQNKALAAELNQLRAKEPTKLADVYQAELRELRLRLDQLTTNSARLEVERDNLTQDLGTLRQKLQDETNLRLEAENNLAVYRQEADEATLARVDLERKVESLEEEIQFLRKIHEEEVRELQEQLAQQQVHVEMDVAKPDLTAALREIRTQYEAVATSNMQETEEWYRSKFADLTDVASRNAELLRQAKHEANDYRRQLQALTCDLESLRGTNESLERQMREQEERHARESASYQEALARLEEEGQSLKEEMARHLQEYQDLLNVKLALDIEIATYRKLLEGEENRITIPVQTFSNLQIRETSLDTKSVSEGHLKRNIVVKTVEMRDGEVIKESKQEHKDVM
# UniProt P04904: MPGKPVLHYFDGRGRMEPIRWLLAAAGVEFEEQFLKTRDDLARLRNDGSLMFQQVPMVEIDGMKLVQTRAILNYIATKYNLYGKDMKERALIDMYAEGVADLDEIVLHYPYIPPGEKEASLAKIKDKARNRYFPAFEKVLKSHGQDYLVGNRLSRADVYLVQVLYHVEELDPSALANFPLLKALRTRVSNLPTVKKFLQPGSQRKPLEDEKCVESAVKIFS
# UniProt Q6IFV3: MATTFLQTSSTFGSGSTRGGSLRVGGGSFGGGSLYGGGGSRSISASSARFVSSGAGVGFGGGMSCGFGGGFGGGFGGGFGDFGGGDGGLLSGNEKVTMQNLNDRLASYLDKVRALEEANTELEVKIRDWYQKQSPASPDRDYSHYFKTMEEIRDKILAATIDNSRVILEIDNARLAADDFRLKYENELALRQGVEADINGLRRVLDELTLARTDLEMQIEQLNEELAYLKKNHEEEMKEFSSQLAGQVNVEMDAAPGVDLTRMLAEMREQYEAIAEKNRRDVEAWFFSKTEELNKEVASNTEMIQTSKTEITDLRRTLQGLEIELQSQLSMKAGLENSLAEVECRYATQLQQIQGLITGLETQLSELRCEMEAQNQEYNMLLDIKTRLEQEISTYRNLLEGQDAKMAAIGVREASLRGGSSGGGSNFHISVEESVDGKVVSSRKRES
# These are yes or no findings as the source states them, for the method shown. Binding seen in cells or lysates may run through a third protein. These calls come from enrichment with a bait or labelling near it, and not all partners need be listed.
# Target: GTP cyclohydrolase I (rat (endogenous in rat liver, brain, heart and kidney)) (UniProt P22288)
# Assay: affinity purification with mass spectrometry; rat liver homogenate (MOPS lysis buffer), pre-cleared, on GCH1 antibody cross-linked to protein A/G agarose overnight at 4°C; IgG agarose as control; wash 150 mM NaCl, 50 mM Tris-HCl pH 7.5; acid elution; LC/MS of tryptic peptides; five independent repeats
row,binding,Molecule
1,binds,Eukaryotic translation initiation factor 3 subunit B (from UniProt Q4G061 1-797)
2,binds,Eukaryotic translation initiation factor 3 subunit G (from UniProt Q5RK09 1-320)
3,binds,Eukaryotic translation initiation factor 3 subunit I (from UniProt B0BNA7 1-325)
4,binds,Glial fibrillary acidic protein (from UniProt P47819 1-430)
5,binds,Glutathione S-transferase alpha-3 (from UniProt P04904 1-221) (enzyme)
6,binds,"Keratin, type I cytoskeletal 15 (from UniProt Q6IFV3 1-447)"
7,binds,"Dynamin-2 (protein, UniProt P39052 1-870) MGNRGMEELIPLVNKLQDAFSSIGQSCHLDLPQIAVVGGQSAGKSSVLENFVGRDFLPRGSGIVTRRPLILQLIFSKTEYAEFLHCKSKKFTDFDEVRQEIEAETDRVTGTNKGISPVPINLRVYSPHVLNLTLIDLPGITKVPVGDQPPDIEYQIKDMILQFISRESSLILAVTPANMDLANSDALKLAKEVDPQGLRTIGVITKLDLMDEGTDARDVLENKLLPLRRGYIGVVNRSQKDIEGRKDIRAALAAERKFFLSHPAYRHMADRMGTPHLQKTLNQQLTNHIRESLPTLRSKLQSQLLSLEKEVEEYKNFRPDDPTRKTKALLQMVQQFGVDFEKRIEGSGDQVDTLELSGGARINRIFHERFPFELVKMEFDEKDLRREISYAIKNIHGVRTGLFTPDLAFEAIVKKQVVKLKEPCLKCVDLVIQELISTVRQCTSKLSSYPRLREETERIVTTYIREREGRTKDQILLLIDIEQSYINTNHEDFIGFANAQQRSTQLNKKRAIPNQGEILVIRRGWLTINNISLMKGGSKEYWFVLTAESLSWYKDEEEKEKKYMLPLDNLKIRDVEKGFMSNKHVFAIFNTEQRNVYKDLRQIELACDSQEDVDSWKASFLRAGVYPEKDQAENEDGAQENTFSMDPQLERQVETIRNLVDSYVAIINKSIRDLMPKTIMHLMINNTKAFIHHELLAYLYSSADQSSLMEESAEQAQRRDDMLRMYHALKEALNIIGDISTSTVSTPVPPPVDDTWLQNTSSHSPTPQRRPVSSVHPPGRPPAVRGPTPGPPLIPMPVGATSSFSAPPIPSRPGPQNVFANNDPFSAPPQIPSRPARIPPGIPPGVPSRRAPAAPSRPTIIRPAEPSLLD"
8,binds,"ATP-binding cassette sub-family D member 3 (protein, UniProt P16970 1-659) MAAFSKYLTARNSSLAGAAFLLFCLLHKRRRALGLHGKKSGKPPLQNNEKEGKKERAVVDKVFLSRLSQILKIMVPRTFCKETGYLILIAVMLVSRTYCDVWMIQNGTLIESGIIGRSSKDFKRYLFNFIAAMPLISLVNNFLKYGLNELKLCFRVRLTRYLYEEYLQAFTYYKMGNLDNRIANPDQLLTQDVEKFCNSVVDLYSNLSKPFLDIVLYIFKLTSAIGAQGPASMMAYLLVSGLFLTRLRRPIGKMTIMEQKYEGEYRFVNSRLITNSEEIAFYNGNKREKQTIHSVFRKLVEHLHNFIFFRFSMGFIDSIIAKYIATVVGYLVVSRPFLDLAHPRHLHSTHSELLEDYYQSGRMLLRMSQALGRIVLAGREMTRLAGFTARITELMQVLKDLNHGKYERTMVSQQDKGIEGAQASPLIPGAGEIINADNIIKFDHVPLATPNGDILIQDLSFEVRSGANVLICGPNGCGKSSLFRVLGELWPLFGGHLTKPERGKLFYVPQRPYMTLGTLRDQVIYPDGKEDQKKKGISDQVLKGYLDNVQLGHILEREGGWDSVQDWMDVLSGGEKQRMAMARLFYHKPQFAILDECTSAVSVDVEDYIYSHCRKVGITLFTVSHRKSLWKHHEYYLHMDGRGNYEFKKITEDTVEFGS"
9,binds,"Keratin, type I cytoskeletal 1 (protein, UniProt Q6IFW5 1-456) MSLSVRTSALSRRSSSQNGVAGRPWGASASSVACGYGGTASGFGVGCGGLLSAASMFGSSSGFSGGSTGCSPGLGTAYGGPLGAGVGGMGIGGSSGGGSLCIFSGNDGGLLSGSEKETMQNLNDRLASYLGKVRALEEANAELENKIREWYETRRTGDSGSQSDYSKYYPLIEDLKNKIISASVSNAQLLLQIDNARLAAEDFRMKYENELALRQTVEADINGLRRVLDELTLARADLEAQTENLTEELAYMKKNHEEELQSFQAGGPGEVNVEMDAAPGVDLTKSGELRKEINSNTEQLQSSKSEVTDLKRMVQNLEIELQSQLAMKSSLEGSLAETEGGYCCQLSQMQQLIGSLEEQLQQLRADAERQNEDHQRLLGVKARLEMEIETYRRLLEGDTQGDGFDESLSLTVSKPQAPSVDSSKDPNKTRKIKTVVQEIVNGEVVSSQVQELEEAM"
10,binds,"Glutathione S-transferase Mu 1 (enzyme, UniProt P04905 1-218) MPMILGYWNVRGLTHPIRLLLEYTDSSYEEKRYAMGDAPDYDRSQWLNEKFKLGLDFPNLPYLIDGSRKITQSNAIMRYLARKHHLCGETEEERIRADIVENQVMDNRMQLIMLCYNPDFEKQKPEFLKTIPEKMKLYSEFLGKRPWFAGDKVTYVDFLAYDILDQYHIFEPKCLDAFPNLKDFLARFEGLKKISAYMKSSRYLSTPIFSKLAQWSNK"
11,binds,"ATP-dependent dihydroxyacetone kinase (enzyme, UniProt Q4KLZ6 1-578) MSSKKMVNSVEGCAGDALAGFVACNPDLQLLQGYRVALRSDLDSLKGRVALLSGGGSGHEPAHAGFIGKGMLTGVIAGAVFASPAVGSILAAIRAVAQAGTAGTLLIVKNYTGDRLNFGLAMEQAKAEGISVEMVVIEDDSAFTVLKKAGRRGLCGTILIHKVAGALAEEGMGLEEITKKVSVIAKAIGTLGVSLSPCSVPGTKPTFELAADEMELGLGIHGEAGVRRIKLVPVDQIVTLMLDHMTDTSNISHVPVKSGSSVVLMVNNLGGLSFLELGIIADAAIRLLEGRGVKVARALVGTFMSALEMRGVSLTLMLVDEPLLKLIDAETNAKAWPHMSKVSVTGRNRIRAAPTEPAEAPEATAAGGVASKQMTLVLDRISTTLIGLEEHLNALDRAAGDGDCGSTHSRAAKAIQGWLKEGPTPASPAQVLSKLSVLLLEKMGGSSGALYGLFLTAAAQPLKANTDLPAWSAAMDAGLKAMQKYGKAAPGDRTMLDSLWAAAQELQAWKSPGASLLPVLTKAVKSAEAAAEATKNMEAGAGRASYISSAQLDQPDPGAVAAAAIFRAILEVLQTKAA"
